Consider 59 compounds from PubChem BioAssay AID2685 (National Center for Advancing Translational Sciences (NCATS), 2010).

This test in a line: qHTS Assay for Lipid Storage Modulators in Drosophila S3 Cells.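 As to cell number change: cells counted by Cell Tracker Red CMTPX staining in the red channel.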 Conditions: BODIPY lipid droplet fluorescence, 18-24 h; for cell number change: measured here: cell count max response, cells fed with added oleic acid. The procedure, abridged:
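Laser-scanning cytometry quantifies lipid droplet accumulation (500–530 nm total intensity; droplet/cell object ratio) in oleic acid-fed (400 uM added) Drosophila S3 cells treated with a concentration series. 20 uM Triacsin C defined 100% inhibition.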

[1] abbreviates: measured here: lipid fluorescence (Fed channel) AC50, cells fed with added oleic acid.
Where [2] appears, read: measured here: cell number channel AC50, cells fed with added oleic acid.

Molecules are shown by their SMILES. The list shows a part of the results. These are further read-outs of the screen, such as a control signal, another cell line or another target. No call is given for them. Compounds called inactive in the main read-out are mostly missing here. Potencies come from curve fits of mixed quality, noted in brackets.

For the compound `CC1(C)CC(OC(=O)c2ccco2)CC(C)(C)N1O`, the cell number change is -23.4%. In addition, the AC50 – broadly, the concentration at which the activity in the assay is half-maximal – under setting [1] is 0.259 µM [falling, full curve, poor fit].
Consider `CCOc1ccccc1NC(=O)CCCc1ccc(OC)c(C)c1`, for which the cell number change is -2.2%. Moreover, the concentration at half-maximal activity (AC50) under setting [1] was 3.26 µM [rising, partial curve, poor fit].
`COc1ccc([C@H]2CC(=O)C=C(c3ccccc3C(F)(F)F)C2)cc1`: the cell number change is -20.3%. Also, the AC50 under setting [1] is 2.91 µM [rising, single point].
With `O=C(COC(=O)c1n[nH]c2ccccc12)NCc1ccccc1`, the cell number change turned out to be 19.9%. In addition, the AC50 under setting [1] is 29.1 µM [rising, single point].
For the compound `O=C(c1ccc(F)cc1F)N1CCN(S(=O)(=O)c2ccc3c(c2)OCCO3)CC1`, the cell number change is -6.48%.
For the compound `C=CCn1c(CCNC(=O)c2ccccc2F)nnc1SCC(=O)Nc1nc(C)cs1`, the cell number change was -18.5%. For the same compound, the AC50 under setting [1] is 2.91 µM [falling, partial curve].
As for `COc1ccc2c(c1OC)C(=O)N1N=C(c3ccccc3)CC21` (stereo unspecified), the cell number change was found to be 59.3%. The AC50 under setting [2] was 1.46 µM [rising, full curve]. Further, the AC50 under setting [1] was 1.16 µM [rising, full curve].
For the compound `N#Cc1ccc(C(=O)N2CCN(C(=O)C3CCCO3)CC2)cc1` (stereo unspecified), the cell number change was determined as 19.7%. For the same compound, the concentration at half-maximal activity (AC50) under setting [1] was 4.61 µM [rising, full curve, poor fit].
For `COc1cccc(OCC(O)CN2CCN(c3ccc(Cl)cc3)CC2)c1` (stereo unspecified), the cell number change was -3.01%. In addition, the AC50 under setting [1] was 0.00517 µM [rising, full curve, poor fit].
With `O=C(CSCc1c(F)cccc1Cl)NCCc1ccccc1`, the cell number change amounted to 1.3%. In addition, the AC50 under setting [1] was 29.1 µM [rising, single point].
For `Cc1nn(Cc2ccc(C(=O)Nc3nccs3)cc2)c(C)c1Cl`, the cell number change worked out at 94.3%. The AC50 under setting [2] is 0.58 µM [rising, full curve]. Further, under setting [1], the AC50 was 4.61 µM [rising, single point].
For `COc1ccccc1CNC(=O)c1ccccc1N(C)S(C)(=O)=O`, the cell number change was -41.9%. The AC50 under setting [2] was 29.1 µM [falling, single point]. Further, under setting [1], the AC50 was 3.66 µM [falling, full curve, poor fit].
With `O=C(NC1CC2CCCC(C1)N2C(=O)Nc1ccccc1Cl)C1CC1` (stereo unspecified), the cell number change was 21%. Moreover, the AC50 under setting [1] is 0.103 µM [falling, full curve, poor fit].
Consider `Cc1ccc(-c2nn(-c3ccccc3)cc2C2CC(c3cccs3)=NN2C(=O)CCC(=O)O)cc1` (stereo unspecified), for which the cell number change is -22.6%.
`Cc1ccc(S(=O)(=O)N2CCC(C(=O)OCC(=O)N(C)C3CCCCC3)CC2)cc1C`: the cell number change was -36.4%. Further, the AC50 under setting [2] was 32.6 µM [falling, single point].
For the compound `FC(F)(F)c1cccc(CNc2ncccc2-c2nc3cc(Cl)ccc3o2)c1`, the cell number change was 20.6%.
As for `CC(C)(C)c1cc(C(=O)NNS(=O)(=O)c2ccccc2)n[nH]1`, the cell number change was determined as 14.7%. The AC50 under setting [1] was 0.184 µM [rising, full curve, poor fit].
For `CC(C)(C)OC(=O)N1CCC(CNC(=O)Nc2ccccc2)CC1`, the cell number change is -23.8%. For the same compound, the AC50 under setting [1] is 18.4 µM [falling, single point].
Turning to `CS(=O)(=O)Cc1ccc(C(=O)Nc2cccc(-c3nc4ccccc4[nH]3)c2)cc1`, the cell number change worked out at 31.9%. Besides, under setting [2], the AC50 is 9.2 µM [rising, partial curve, poor fit].
Regarding `COCCn1c(=N)c(C(=O)NCCc2ccc(OC)cc2)cc2c(=O)n3cccc(C)c3nc21`, the cell number change was 11.4%. Besides, under setting [1], the AC50 was 0.92 µM [rising, full curve].
For `CC(NC(=O)c1ccc(F)cc1)c1nc2ccccc2n1Cc1ccccc1F` (stereo unspecified), the cell number change was determined as 20.8%. In addition, the AC50 under setting [1] was 6.51 µM [falling, single point].
For `Cc1ccc(Nc2nnc(SCc3nc4ccccc4c(=O)[nH]3)s2)cc1`, the cell number change was determined as 5.85%. For the same compound, the AC50 under setting [1] is 0.411 µM [rising, partial curve, poor fit].
For `COc1ccc(CCNC(=O)CCn2c(=O)c3cccn3c3cccnc32)cc1OC`, the cell number change was -15.6%. The AC50 under setting [2] is 0.0082 µM [falling, full curve].
Consider `Cc1ccc2[nH]cc(CCNC(=O)c3ccco3)c2c1`, for which the cell number change is -2.52%. The AC50 under setting [1] was 6.51 µM [falling, single point].
As for `COc1ccc(Cl)cc1NC(=O)CN1CCN(S(=O)(=O)N2CCCCC2)CC1`, the cell number change turned out to be 40.4%. Further, the AC50 under setting [2] is 13 µM [rising, partial curve, poor fit]. For the same compound, the AC50 under setting [1] is 1.84 µM [falling, partial curve].
Turning to `CCOC(=O)C1CCN(C(c2cccs2)c2sc3nc(C)nn3c2O)CC1` (stereo unspecified), the cell number change stood at 75.7%. Besides, under setting [2], the half-maximal activity concentration (AC50) was 29.1 µM [rising, single point].
`COc1ccc(C2(CNC(=O)CCC(=O)O)CCCC2)cc1OC`: the cell number change is -93.7%. Further, the AC50 under setting [2] is 25.9 µM [falling, partial curve]. The AC50 under setting [1] is 6.51 µM [falling, single point].
As to `NC(=S)N/N=C/c1ccc(-c2ccc([N+](=O)[O-])cc2)o1`, the cell number change was determined as 66.4%. Under setting [2], the half-maximal activity concentration (AC50) is 29.1 µM [rising, single point].
Consider `CC(C)c1nc2c(s1)CCc1onc(-c3ccc(Cl)cc3)c1-2`, for which the cell number change is -6.01%. Besides, under setting [1], the AC50 was 0.58 µM [falling, full curve].
On to `CCCCCC(=O)Nc1ccc(N2CCOCC2)c(S(=O)(=O)Nc2ccc(OC)cc2)c1`, for which the cell number change is 39.9%. Besides, the AC50 under setting [2] is 2.06 µM [rising, full curve, poor fit]. Besides, the AC50 under setting [1] is 4.61 µM [rising, partial curve].
Take `O=C(CSc1nc(O)c(Cc2ccccc2)c(=O)n1-c1ccccc1)N1CCOCC1`: the cell number change was 51.7%. In addition, under setting [2], the AC50 was 0.58 µM [rising, partial curve, poor fit].
Take `COc1ccccc1N1CCN(Cc2cc3c(cc2Br)OCCO3)CC1`: under setting [1], the AC50 was 0.58 µM [rising, single point].
In the case of `Cc1csc(SCC(=O)Nc2ccc(S(=O)(=O)N3CCCC3)cc2)n1`, the cell number change is -36.1%. The AC50 under setting [2] is 23.1 µM [falling, partial curve, poor fit]. Also, under setting [1], the AC50 is 20.6 µM [falling, partial curve, poor fit].
As to `O=C(NCC(=O)N1CCN(Cc2ccccc2)CC1)c1ccc(Cl)cc1`, the cell number change was 11.4%.
Take `Cc1ccccc1N1CCN(c2ncnc3c2cnn3Cc2ccc(Cl)cc2)CC1`: the cell number change was -43.6%. Further, under setting [2], the AC50 was 0.92 µM [rising, partial curve].
As to `COc1ccc(CCNC2=C(Cl)C(=O)N(Cc3ccccc3)C2=O)cc1OC`, the cell number change was -37.3%. Also, under setting [2], the concentration at half-maximal activity (AC50) is 0.651 µM [falling, full curve].
With `CCOCCCNC(=O)C(NC(=O)CC1NC(=O)NC1=O)c1ccc(Cl)cc1` (stereo unspecified), the cell number change is -18.9%. Besides, the AC50 under setting [1] was 5.17 µM [falling, full curve, poor fit].
With `C=CCNC(=S)N/N=C(\C)c1ccccn1`, the cell number change is 2.98%. In addition, the AC50 under setting [1] was 0.731 µM [falling, full curve].
`COC(=O)c1c(C(=O)OC)c(-c2ccccc2)n2c1CS(=O)C2` (stereo unspecified): the cell number change was determined as 9.8%.
Turning to `COc1cccc(NC(=O)CN(C)C(=O)c2cc(-c3ccc(C)o3)nc3ccccc23)c1`, the cell number change is 13.8%. In addition, the AC50 under setting [1] was 6.51 µM [rising, single point].
As to `CCOc1ccc(S(=O)(=O)Nc2ccccc2C(=O)NCc2ccco2)cc1`, the cell number change is -41.5%. Also, the AC50 under setting [2] was 16.4 µM [falling, single point]. Besides, the AC50 under setting [1] is 0.58 µM [rising, full curve].
For the compound `COc1ccc(CNC(=O)C2CC(c3cccc([N+](=O)[O-])c3)=NO2)cc1` (stereo unspecified), the AC50 under setting [1] is 4.11 µM [rising, full curve].
As to `CCN(CC(=O)Nc1c(F)cccc1F)C(=O)COc1ccc2c(C)cc(=O)oc2c1`, under setting [1], the concentration at half-maximal activity (AC50) was 6.51 µM [rising, single point].
Turning to `COc1ccc(C)cc1-n1c(SCC(=O)NCC2CCCO2)nc2c([nH]c3ccccc32)c1=O` (stereo unspecified), the cell number change was -13.6%. In addition, under setting [1], the AC50 is 29.1 µM [rising, single point].
For the compound `Oc1c(N=Nc2ccccn2)ccc2ccccc12`, the cell number change was -95.5%. For the same compound, the AC50 under setting [2] is 5.17 µM [falling, full curve]. The AC50 under setting [1] was 3.66 µM [falling, full curve].
With `CNC(C)C#Cc1ccc2sc3cccc(OC)c3c(=O)c2c1` (stereo unspecified), the cell number change was -4.49%. For the same compound, the AC50 under setting [1] is 6.51 µM [rising, single point].
For the compound `COc1ccc(OC)c2c(C)cc(N3CCN(C(=O)c4ccc(Cl)cc4)CC3)nc12`, the cell number change was 42.2%.
On the same count and under the same terms, the figure for `Cc1cc2ccccc2n2c(SCC(=O)N3CCN(C(=O)c4ccco4)CC3)nnc12` is -8.9%.
As to `CCC(=O)Nc1cccc(C2=NOC3(C2)C[C@@H](C(N)=O)N(C(=O)COc2ccc(Cl)cc2)C3)c1` (stereo partly specified), the cell number change was 22.4%. Besides, the AC50 under setting [1] was 14.6 µM [rising, partial curve, poor fit].
With `O=C(Nc1nc(=S)ss1)c1ccc(Cl)cc1Cl`, the cell number change is -22.1%. For the same compound, the AC50 under setting [2] is 0.231 µM [falling, full curve, poor fit].
On to `Cc1c(NC(=O)c2ccc([N+](=O)[O-])o2)cccc1-c1nc2ncccc2o1`, for which the cell number change is -1.32%. For the same compound, under setting [1], the AC50 is 5.62 µM [rising, single point].
As for `Cc1nnc(NC(=O)CCS(=O)(=O)c2ccccc2)s1`, the cell number change was -22.9%. The AC50 under setting [2] is 0.164 µM [falling, full curve, poor fit].
Turning to `C/C(=N/NC(=O)c1ccncc1)c1ccc(NC(=O)c2ccc(Cl)cc2Cl)cc1`, the cell number change was 21.4%. Under setting [2], the AC50 is 7.31 µM [rising, partial curve, poor fit]. Under setting [1], the AC50 was 3.66 µM [rising, single point].
As to `CC(C)=C1C(=O)NN(c2cccc(Cl)c2)C1=O`, the cell number change came to 9.52%. Besides, under setting [1], the AC50 was 13 µM [falling, single point].
For the compound `Oc1ccc(Nc2nc3ccccc3nc2Nc2ccc(O)cc2)cc1`, the cell number change is -71.3%. In addition, the half-maximal activity concentration (AC50) under setting [2] was 29.1 µM [falling, partial curve, poor fit].
`O=C(COc1coc(CN2CCc3ccccc32)cc1=O)Nc1ccccc1`: the cell number change is 2.5%. Moreover, the AC50 under setting [2] is 0.0146 µM [falling, full curve, poor fit].
Take `CC(C)Cc1nc2oc3c(Cl)ncnc3c2c2c1CCCC2`: the cell number change is -18.2%.
Still for that read-out and setting: the figure for `COC(=O)C1CCN(C(=O)NC(C)(C)C)CC1` is -11.9%.
For `COc1ccccc1OCCNC(=O)c1cccc(S(=O)(=O)NCc2ccccc2)c1`, the cell number change is -14.4%. Under setting [1], the concentration at half-maximal activity (AC50) is 1.16 µM [rising, full curve].
